PubChem BioAssay AID2685 (National Center for Advancing Translational Sciences (NCATS), 2010)
Some of the results follow. These are further read-outs of the screen, such as a control signal, another cell line or another target. No call is given for them. Compounds called inactive in the main read-out are mostly missing here. The note in brackets gives the kind of curve behind each potency; many fits are weak.

Assay: qHTS Assay for Lipid Storage Modulators in Drosophila S3 Cells;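 as to cell number change: cells counted by Cell Tracker Red CMTPX staining in the red channel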
Settings: BODIPY lipid droplet fluorescence, 18-24 h; for cell number change: measured here: cell count max response, cells fed with added oleic acid
In short: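 Laser-scanning cytometry quantifies lipid droplet accumulation (500–530 nm total intensity; droplet/cell object ratio) in oleic acid-fed (400 uM added) Drosophila S3 cells treated with a concentration series. 20 uM Triacsin C defined 100% inhibition.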

[1] = measured here: lipid fluorescence (Fed channel) AC50, cells fed with added oleic acid
[2] = measured here: cell number channel AC50, cells fed with added oleic acid

SMILES	cell number change [%]	AC50 [1]	AC50 [2]
O=[N+]([O-])/C=C/c1cn(Cc2ccc(Cl)cc2)c2ccccc12	-15.9	10.3 µM [falling, partial curve]	–
O=C(Cn1nc(CNc2ccc(Cl)cc2)[n+]2c1CCCCC2)c1ccc(Cl)cc1	-37	18.4 µM [falling, single point]	29.1 µM [falling, single point]
Cc1cc(-c2n[nH]c(=S)n2/N=C/c2cccc([N+](=O)[O-])c2)n[nH]1	12.2	3.66 µM [falling, partial curve]	–
CCOC(=O)c1csc(NC(=O)c2ccc(S(=O)(=O)N3CCCC3)cc2)n1	26	6.51 µM [rising, partial curve, poor fit]	6.51 µM [rising, single point]
COc1ccc(OC)c(NC(=O)CSc2nc3cccnc3n2C)c1	–	0.58 µM [rising, single point]	0.517 µM [rising, single point]
CCOC(=O)C1=C(O)C(=O)N(Cc2cccnc2)C1c1ccc(OC)cc1 (stereo not given)	30.4	22.4 µM [falling, single point]	–
CCc1ccc(NC(=O)COC(=O)/C=C/c2c(C)nn(C3CCS(=O)(=O)C3)c2Cl)cc1 (stereo not given)	-42.6	0.206 µM [falling, full curve]	0.116 µM [falling, full curve, poor fit]
O=C1OC2(c3ccccc31)c1cc(I)c(O)c(I)c1Oc1c2cc(I)c(O)c1I	-104	3.26 µM [falling, full curve]	2.91 µM [falling, full curve]
Cc1ccc(S(=O)c2ccc(NC(=O)C3CC3)cc2C#N)cc1 (stereo not given)	-62.3	29.1 µM [falling, single point]	29.1 µM [falling, single point]
O=C(NCC(=O)N1CCC2(CC1)NCCc1[nH]cnc12)c1ccccc1F	-11.6	6.51 µM [falling, single point]	–
COC(=O)C1=C(C)NC(=O)NC1c1ccccc1Cl (stereo not given)	7.42	–	–
Cc1cc(=O)oc2c(C)c(OC(C)C(=O)NCCCN3CCOCC3)ccc12 (stereo not given)	30.4	–	32.6 µM [rising, single point]
COc1ccc(CCNC(=O)c2ccc(Cl)cc2)cc1OC	-37.9	–	–
Cc1cc(Cl)nc2ccc(Cc3ccc4nc(Cl)cc(C)c4c3)cc12	37.6	29.1 µM [rising, single point]	32.6 µM [rising, single point]
Cc1cccc(CNC(=O)CCn2ccc3cc(S(=O)(=O)N4CCCC4)ccc32)c1	-7.22	29.1 µM [falling, single point]	–
CCOc1c(Cl)cc(CNC(C)(C)CC(C)(C)C)cc1OC	-33.9	–	0.146 µM [falling, full curve]
O=C(OCn1nnc2ccccc2c1=O)c1cn(-c2ccccc2)nc1-c1cccnc1	-34.4	0.259 µM [rising, full curve, poor fit]	0.231 µM [falling, full curve, poor fit]

Random excerpt: 3 compounds from above
SMILES	cell number change [%]	AC50 [1]	AC50 [2]
CCOC(=O)C1=C(O)C(=O)N(Cc2cccnc2)C1c1ccc(OC)cc1 (stereo not given)	30.4	22.4 µM [falling, single point]	–
Cc1cccc(CNC(=O)CCn2ccc3cc(S(=O)(=O)N4CCCC4)ccc32)c1	-7.22	29.1 µM [falling, single point]	–
Cc1ccc(S(=O)c2ccc(NC(=O)C3CC3)cc2C#N)cc1 (stereo not given)	-62.3	29.1 µM [falling, single point]	29.1 µM [falling, single point]

The list continues:

SMILES	cell number change [%]	AC50 [1]	AC50 [2]
CCN(CC)C1CC(=O)N(c2ccc(Br)cc2)C1=O (stereo not given)	-37.6	13 µM [falling, partial curve]	32.6 µM [falling, partial curve, poor fit]
COc1ccc(C2N3CC4(C)CN2CC(C)(C3)C4)cc1OC (stereo not given)	0.408	29.1 µM [falling, single point]	–
CCn1nccc1C(=O)Nc1cccc(C)c1C	30.1	6.51 µM [rising, single point]	20.6 µM [rising, partial curve, poor fit]
COc1ccc(N2CCN(Cc3nc4ccccc4n3C)CC2)cc1	-4.08	0.146 µM [falling, full curve, poor fit]	0.146 µM [falling, full curve, poor fit]
COc1ccc(/C=N/OCC(=O)Nc2nc3ccccc3s2)cc1	-31.1	16.4 µM [rising, single point]	20.6 µM [falling, single point]
CC(=O)OC(C)(C)C#CCN1CCCC1	–	20.6 µM [falling, single point]	–
Cc1cc(NC(=O)C(C)C)ncc1NC(=O)c1ccccn1	7.25	–	2.06 µM [falling, partial curve]
COc1cc(OC)cc(N2CCN(S(=O)(=O)c3ccc(-n4cnnn4)cc3)CC2)c1	19.7	–	–
Cc1cc(Cl)ccc1NC(=S)N1CCC(C(N)=O)(N2CCCCC2)CC1	11.7	0.00461 µM [rising, full curve, poor fit]	–
Nc1ccccc1C(=O)NCc1ccccc1	-36.5	29.1 µM [falling, single point]	29.1 µM [falling, single point]
COc1ccc(C(=O)N/N=C/c2ccc(OC)c(COc3ccc(F)cc3)c2)cc1	–	8.91 µM [falling, partial curve, poor fit]	–
CCCCSc1nc(C)cc(SCC(=O)N/N=C/c2cccc(OC)c2O)n1	-1.3	23.1 µM [falling, single point]	–
CCCc1cc(C(=O)Nc2ccc(Cl)cn2)cs1	2.48	29.1 µM [falling, single point]	–
CCCCN(C(=O)C1CSC2(C)CCC(=O)N12)c1c(N)n(CC(C)C)c(=O)[nH]c1=O (stereo not given)	7.65	7.31 µM [rising, partial curve]	–
Nn1c(COc2ccccc2F)nnc1SCC(=O)NC1CCCC1	-13.8	29.1 µM [rising, single point]	–
CCCCN(Cc1ccccc1)C(=O)CCN1C(=O)C2C3C=CC(C3)C2C1=O (stereo not given)	–	0.13 µM [rising, full curve, poor fit]	–
O=C1CCC(C(=O)OCC(=O)c2ccccc2)N1 (stereo not given)	-33.8	0.282 µM [falling, full curve, poor fit]	0.251 µM [falling, full curve, poor fit]
